For 3 molecules, binding results are on record in publication doi:10.1101/2023.03.15.532818.

Chains of the proteins cited; added tags and fusions are not shown. Lines headed by an entry give the natural chain unless they say otherwise; changes in a name come on top.
UniProt Q8IUF8, whole entry: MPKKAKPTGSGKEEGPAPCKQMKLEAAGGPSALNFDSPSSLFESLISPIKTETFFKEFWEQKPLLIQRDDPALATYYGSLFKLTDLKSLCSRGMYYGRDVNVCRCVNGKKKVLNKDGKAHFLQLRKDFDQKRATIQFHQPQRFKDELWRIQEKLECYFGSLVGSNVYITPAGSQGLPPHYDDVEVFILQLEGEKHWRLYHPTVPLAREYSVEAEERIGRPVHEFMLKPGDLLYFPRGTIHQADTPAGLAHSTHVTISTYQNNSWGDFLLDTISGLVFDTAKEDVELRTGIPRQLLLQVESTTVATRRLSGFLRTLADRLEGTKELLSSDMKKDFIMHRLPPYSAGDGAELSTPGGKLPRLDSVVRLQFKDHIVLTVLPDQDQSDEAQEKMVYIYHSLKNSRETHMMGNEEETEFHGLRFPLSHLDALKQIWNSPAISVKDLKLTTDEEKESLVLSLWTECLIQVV
UniProt P06748, whole entry: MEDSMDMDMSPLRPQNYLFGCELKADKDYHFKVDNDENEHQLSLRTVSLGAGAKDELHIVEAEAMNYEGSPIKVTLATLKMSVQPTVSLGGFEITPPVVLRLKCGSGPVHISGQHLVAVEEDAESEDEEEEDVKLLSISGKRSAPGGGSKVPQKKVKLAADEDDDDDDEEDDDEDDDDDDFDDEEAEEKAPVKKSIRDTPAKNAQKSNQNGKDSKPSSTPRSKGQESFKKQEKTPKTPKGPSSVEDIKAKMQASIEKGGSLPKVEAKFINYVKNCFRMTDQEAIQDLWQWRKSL

What all share (experiment): co-IP
Assay [1] has as its target HA-MINA R125G/K126G (NoLS mutant) (UniProt Q8IUF8).
Assay [2] deals with T1, MPP2 with C-terminal HA tag (wildtype MPP2) (UniProt Q14168).
T1 sequence: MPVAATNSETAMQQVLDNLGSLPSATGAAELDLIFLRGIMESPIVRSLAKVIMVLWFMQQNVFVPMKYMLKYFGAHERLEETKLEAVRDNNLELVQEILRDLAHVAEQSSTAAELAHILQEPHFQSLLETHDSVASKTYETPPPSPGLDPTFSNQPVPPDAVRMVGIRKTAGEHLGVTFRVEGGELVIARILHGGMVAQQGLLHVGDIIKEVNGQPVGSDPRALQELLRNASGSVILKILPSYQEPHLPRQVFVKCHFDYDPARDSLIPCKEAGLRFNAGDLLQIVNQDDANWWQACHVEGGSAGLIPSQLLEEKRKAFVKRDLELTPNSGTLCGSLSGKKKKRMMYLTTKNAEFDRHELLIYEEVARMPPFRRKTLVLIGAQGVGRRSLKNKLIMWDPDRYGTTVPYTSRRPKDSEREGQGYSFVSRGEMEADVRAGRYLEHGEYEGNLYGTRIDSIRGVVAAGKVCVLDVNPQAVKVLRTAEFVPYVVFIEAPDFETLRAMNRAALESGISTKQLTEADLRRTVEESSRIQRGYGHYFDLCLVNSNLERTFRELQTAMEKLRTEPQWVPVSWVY

In the next assay the target is T2, MPP6-HA (human) (UniProt Q9NZW5).
T2 sequence: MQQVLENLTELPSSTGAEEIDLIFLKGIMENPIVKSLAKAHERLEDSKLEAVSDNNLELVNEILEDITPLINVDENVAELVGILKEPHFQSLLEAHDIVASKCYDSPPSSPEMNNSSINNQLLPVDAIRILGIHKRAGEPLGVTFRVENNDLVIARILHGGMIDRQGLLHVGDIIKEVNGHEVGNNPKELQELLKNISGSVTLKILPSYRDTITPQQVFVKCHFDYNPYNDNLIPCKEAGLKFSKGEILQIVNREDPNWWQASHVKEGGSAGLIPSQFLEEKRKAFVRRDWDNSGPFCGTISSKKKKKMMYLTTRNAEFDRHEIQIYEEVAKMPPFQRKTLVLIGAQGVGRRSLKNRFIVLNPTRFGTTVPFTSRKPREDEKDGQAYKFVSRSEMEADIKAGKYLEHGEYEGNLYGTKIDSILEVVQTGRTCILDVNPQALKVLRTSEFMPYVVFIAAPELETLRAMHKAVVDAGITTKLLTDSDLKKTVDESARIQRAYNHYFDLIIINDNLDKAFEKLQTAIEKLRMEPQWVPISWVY

Assay [3] has as its target 3xFLAG-MINA R125G/K126G (NoLS mutant) (UniProt Q8IUF8).
The target in assay [4] is 3xFLAG-MINA H179A (inactivating Fe(II)-binding mutation) (UniProt Q8IUF8).
The target of a further assay is HA-MINA (wildtype) (UniProt Q8IUF8).

Results are given in words; binding and its absence hold for the method and conditions named. Binding seen in cells or lysates may run through a third protein. Some results given as binding are weak or reduced against the parent protein; the word gives no strength. For part of these data: Sequences can lack the tags named with a protein.

“endogenous Nucleophosmin (NPM1) (from UniProt P06748 1-294)”: the binding entry in assay [1] is “no binding”.

On to “FLAG-MINA (from UniProt Q8IUF8 1-465) (enzyme)”, for which the binding result is given as “no binding” in assay [2] and “binds” with MPP6-HA (human).

B1: endogenous MPP6 (membrane palmitoylated protein 6) (protein, UniProt Q9NZW5 1-540)
chain: MQQVLENLTELPSSTGAEEIDLIFLKGIMENPIVKSLAKAHERLEDSKLEAVSDNNLELVNEILEDITPLINVDENVAELVGILKEPHFQSLLEAHDIVASKCYDSPPSSPEMNNSSINNQLLPVDAIRILGIHKRAGEPLGVTFRVENNDLVIARILHGGMIDRQGLLHVGDIIKEVNGHEVGNNPKELQELLKNISGSVTLKILPSYRDTITPQQVFVKCHFDYNPYNDNLIPCKEAGLKFSKGEILQIVNREDPNWWQASHVKEGGSAGLIPSQFLEEKRKAFVRRDWDNSGPFCGTISSKKKKKMMYLTTRNAEFDRHEIQIYEEVAKMPPFQRKTLVLIGAQGVGRRSLKNRFIVLNPTRFGTTVPFTSRKPREDEKDGQAYKFVSRSEMEADIKAGKYLEHGEYEGNLYGTKIDSILEVVQTGRTCILDVNPQALKVLRTSEFMPYVVFIAAPELETLRAMHKAVVDAGITTKLLTDSDLKKTVDESARIQRAYNHYFDLIIINDNLDKAFEKLQTAIEKLRMEPQWVPISWVY
For the molecule B1, the binding entry is “binds” in assay [3], “no binding” in assay [4] and “binds” with HA-MINA (wildtype).
